Test results published in patent US20190358198A1, “USE OF OVATODIOLIDE FOR PREPARING A COMPOSITION FOR INHIBITING PROTEIN SYNTHESIS OF GASTRIC HELICOBACTER PYPORI” (Syi Biotechnology Co.,Ltd., priority 2018, published 2019).
Some entries share one result that the patent states for a list of compounds. At least one structure is not confirmed: it was looked up by name or label, or the drawing left a doubt.

Test system: extracts of Escherichia coli (E. coli S30)
Test: In vitro transcription/translation system with pGL3 luciferase readout
Format: biochemical
Conditions: 1 μM; FIG. 1
Protocol: The structure of ovatodiolide is similar to that of the medicines in antibiotics for inhibiting protein generation. In order to understand whether the mechanism of ovatodiolide for inhibiting Helicobacter Pylori is related to protein synthesis, let ovatodiolide and extracts of Escherichia coli (E. coli S30) to take effect for 10 minutes by using in vitro transcription/translation systems. Then, pGL3 luciferase is added for carrying out transcription and translation reaction for 2 hours. Finally, the reacted sample is added with luciferin for it to present color by using Dual-Luciferase Reporter Assay System. Then, microplate luminometer is used to determine the […] in order to find out whether ovatodiolide can inhibit protein synthesis.
Among them, inhibition of 30S subunit using kanamycin and inhibition of […] using erythromycin are used as control groups.

Row | SMILES | inhibition of protein synthesis
1 | CC[C@H]1OC(=O)[C@H](C)[C@@H](O[C@H]2C[C@@](C)(OC)[C@@H](O)[C@H](C)O2)[C@H](C)[C@@H](O[C@@H]2O[C@H](C)C[C@H](N(C)C)[C@H]2O)[C@](C)(O)C[C@@H](C)C(=O)[C@H](C)[C@@H](O)[C@]1(C)O [erythromycin] | more than 75%
2 | NC[C@H]1O[C@H](O[C@H]2[C@H](O)[C@@H](O[C@H]3O[C@H](CO)[C@@H](O)[C@H](N)[C@H]3O)[C@H](N)C[C@@H]2N)[C@H](O)[C@@H](O)[C@@H]1O [kanamycin] | more than 75%
